The list shows only some results of the screen, not a fair sample: it is rich in T/C values a quarter to a half above the control, in often repeated tests (any T/C) and in doses without a T/C. Further doses and runs are listed elsewhere. T/C: endpoint of the treated group in % of that of the vehicle group. Some doses have a count of surviving animals in place of a T/C: the source holds a T/C of zero for them, seemingly a mark for toxic or unscored doses. Some doses without a T/C left all or most animals alive at the check, yet need not have been tolerated: the source hardly ever lists a survival T/C far under the control, and the zero likely stands for such cases as well. Survivors were counted at the toxicity check, usually on the fifth day, unless a day is given; later deaths do not show. Schedule codes are those of the source, taken here to give the interval after Q, in days (D) or hours (H), and the number of doses after X. Some entries were tested several times; their values stand side by side, smallest first. Some schedule codes hold Z or #, which are not explained here.
System: L1210 leukemia ip in BDF1 mice, survival T/C
Experiment: NCI In Vivo Anticancer Drug Screen. Data for tumor model L1210 Leukemia (intraperitoneal) in B6D2F1 (BDF1) mice
Details: T/C endpoint: mean survival time, higher T/C = longer survival
[1] = dose: 300.0 mg/kg/injection, schedule: Q01DX001 (ip), vehicle: saline
[2] = dose: 400.0 mg/kg/injection, schedule: Q04DX002 (ip), vehicle: Klucel (hydroxypropylcellulose) (HPC)
[3] = dose: 400.0 mg/kg/injection, schedule: Q04DX002 (ip), vehicle: saline with Tween-80
[4] = dose: 400.0 mg/kg/injection, schedule: Q01DX001 (ip), vehicle: saline
[5] = dose: 200.0 mg/kg/injection, schedule: Q01DX001 (ip), vehicle: saline
[6] = dose: 400.0 mg/kg/injection, schedule: Q01DX001 (ip), vehicle: carboxymethylcellulose (CMC)
[7] = dose: 400.0 mg/kg/injection, schedule: Q04DX003 (ip), vehicle: saline
[8] = dose: 400.0 mg/kg/injection, schedule: Q04DX003 (ip), vehicle: saline with Tween-80
[9] = dose: 50.0 mg/kg/injection, schedule: Q01DX001 (ip), vehicle: saline

O=C1NCC(Nc2ccccc2Cl)C(=O)N1 (stereo not drawn)
survivor count (dose: 200.0 mg/kg/injection, schedule: Q01DX Z (ip), vehicle: saline): 6 of 6

O=C1CCCC1CNCc1ccccc1 (stereo not drawn)
survivor count [1]: 0 of 6

COc1ccc(NC(=S)Nc2ccc(-c3ccc(NC(=S)Nc4ccc(OC)cc4)cc3)cc2)cc1
survivor count [2]: 3 of 3

N#CC(C(=O)Nc1cccc(C(F)(F)F)c1)C(=S)Nc1ccccc1Cl (stereo not drawn)
survivor count (dose: 200.0 mg/kg/injection, schedule: Q04DX002 (ip), vehicle: saline with Tween-80): 1 of 3
survivor count [3]: 1 of 3

O=C1c2ccccc2C(=O)C(Cl)C1Cl (stereo not drawn)
survivor count (dose: 12.5 mg/kg/injection, schedule: Q04DX003 (ip), vehicle: other): 0 of 6
survivor count (dose: 25.0 mg/kg/injection, schedule: Q04DX003 (ip), vehicle: other): 0 of 6
survivor count (dose: 100.0 mg/kg/injection, schedule: Q04DX003 (ip), vehicle: other): 0 of 6
survivor count (dose: 200.0 mg/kg/injection, schedule: Q04DX003 (ip), vehicle: other): 0 of 6
survivor count (dose: 400.0 mg/kg/injection, schedule: Q04DX003 (ip), vehicle: other): 0 of 6

O=C(N/N=C/NN/C=N/NC(=O)c1ccncc1)c1ccncc1
survivor count [1]: 1 of 6

O=C1C=C2C=CC3CC2(O1)C1CCCCN31 (stereo not drawn)
survivor count (dose: 40.0 mg/kg/injection, schedule: Q01DX001 (ip), vehicle: saline): 2 of 4
survivor count [4]: 1 of 4 and 2 of 4

CC1(C)CCC(C)(C)c2c1ccc(O)c2Sc1c(O)ccc2c1C(C)(C)CCC2(C)C
survivor count [5]: 6 of 6
survivor count [4]: 6 of 6

O=C(CS(=O)(=O)Cc1ccccc1)N1CCOCC1
survivor count (dose: 100.0 mg/kg/injection, schedule: Q01DX009 (ip), vehicle: saline): 6 of 6

C1=Nc2ccccc2/C1=C/c1cccc2ccccc12
survivor count [3]: 3 of 3

O=C(Nc1ccc(F)cc1)Nc1ccc(CCO)cc1
survivor count [6]: 6 of 6
survivor count (dose: 400.0 mg/kg/injection, schedule: Q01DX009 (ip), vehicle: carboxymethylcellulose (CMC)): 3 of 3

OCc1cc2ccccc2cc1F
survivor count (dose: 400.0 mg/kg/injection, schedule: Q04DX003 (ip), vehicle: acetone): 2 of 6

CCOC(=O)OC1CC/C(=N\N=C(N)N)C1 (stereo not drawn)
survivor count (dose: 60.0 mg/kg/injection, schedule: Q01DX Z (ip), vehicle: methylcellulose (MC)): 6 of 6
survivor count (dose: 250.0 mg/kg/injection, schedule: Q01DX Z (ip), vehicle: methylcellulose (MC)): 0 of 6
survivor count (dose: 375.0 mg/kg/injection, schedule: Q01DX Z (ip), vehicle: methylcellulose (MC)): 0 of 6
survivor count (dose: 500.0 mg/kg/injection, schedule: Q01DX Z (ip), vehicle: methylcellulose (MC)): 0 of 6

Cc1ccc(C)c(NC(=O)Nc2ccccc2C)c1
survivor count (dose: 50.0 mg/kg/injection, schedule: Q01DX009 (ip), vehicle: Klucel (hydroxypropylcellulose) (HPC)): 6 of 6
survivor count (dose: 100.0 mg/kg/injection, schedule: Q01DX009 (ip), vehicle: Klucel (hydroxypropylcellulose) (HPC)): 6 of 6
survivor count (dose: 400.0 mg/kg/injection, schedule: Q01DX009 (ip), vehicle: Klucel (hydroxypropylcellulose) (HPC)): 5 of 6

CCOc1ccc(/C=N/Nc2c3ccccc3nc3ccccc23)cc1OCC
survivor count [4]: 4 of 4

CCCNC(=O)Oc1c(C)cccc1C
survivor count (dose: 200.0 mg/kg/injection, schedule: Q01DX009 (ip), vehicle: carboxymethylcellulose (CMC)): 0 of 3
survivor count [2]: 1 of 3
survivor count (dose: 400.0 mg/kg/injection, schedule: Q04DX002 (ip), vehicle: carboxymethylcellulose (CMC)): 2 of 3 and 4 of 6

N=C(N)c1ncn(C2CC(O)C(CO)O2)c1N (stereo not drawn)
survivor count [4]: 1 of 6

O=S(=O)(O)N(O)S(=O)(=O)O
survivor count [7]: 3 of 3

CCOC(=O)CCSC
survivor count [8]: 3 of 6

NC(N)=N/N=C/Cc1ccccc1
survivor count (dose: 125.0 mg/kg/injection, schedule: Q01DX Z (ip), vehicle: saline): 3 of 6
survivor count (dose: 250.0 mg/kg/injection, schedule: Q01DX Z (ip), vehicle: saline): 0 of 6
survivor count (dose: 500.0 mg/kg/injection, schedule: Q01DX Z (ip), vehicle: saline): 0 of 6

CCC[CH2][Pb]([CH2]CCC)([CH2]CCC)[O]C(C)=O
survivor count [9]: 2 of 4
survivor count (dose: 100.0 mg/kg/injection, schedule: Q04DX003 (ip), vehicle: saline with Tween-80): 2 of 3
survivor count (dose: 200.0 mg/kg/injection, schedule: Q04DX003 (ip), vehicle: saline with Tween-80): 0 of 3
survivor count [4]: 1 of 4
survivor count [8]: 0 of 3

Cl/C(=C/C=C(c1ccccc1)c1ccccc1)c1ccccc1
survivor count [3]: 3 of 3

Cc1cn(-c2ccccc2)c(=O)[nH]c1=O
survivor count (dose: 200.0 mg/kg/injection, schedule: Q01DX001 (ip), vehicle: other): 3 of 6
survivor count (dose: 400.0 mg/kg/injection, schedule: Q01DX001 (ip), vehicle: other): 0 of 6

CCC[N+](C)(C)CCOC(=O)C1C2CC3OC(=O)C1C3C2 (stereo not drawn)
survivor count [7]: 0 of 4

O=C(Nc1ccc(C2=NCCN2)c(O)c1)c1cccc(C(=O)Nc2ccc(C3=NCCN3)c(O)c2)c1
survivor count (dose: 125.0 mg/kg/injection, schedule: Q01DX Z (ip), vehicle: water): 0 of 6
survivor count (dose: 250.0 mg/kg/injection, schedule: Q01DX Z (ip), vehicle: water): 0 of 6

CC(=O)N/N=C/c1ccc2c(c1)CCC2
survivor count [8]: 0 of 6

O=C1NC2CC3CC(C2)CC1C3
survivor count (dose: 100.0 mg/kg/injection, schedule: Q04DX003 (ip), vehicle: alcohol): 0 of 6
survivor count (dose: 200.0 mg/kg/injection, schedule: Q04DX003 (ip), vehicle: alcohol): 0 of 6
survivor count (dose: 400.0 mg/kg/injection, schedule: Q04DX003 (ip), vehicle: alcohol): 0 of 6

CC1c2ncnc(N)c2CN1C(=O)c1ccccc1 (stereo not drawn)
survivor count [6]: 0 of 4

O/N=C\c1ccccc1Cl
survivor count (dose: 400.0 mg/kg/injection, schedule: Q01DX009 (ip), vehicle: saline with Tween-80): 3 of 6

Nc1ccncc1
survivor count [9]: 3 of 6
survivor count (dose: 100.0 mg/kg/injection, schedule: Q01DX001 (ip), vehicle: saline): 0 of 6
survivor count [5]: 0 of 6

O=C(Nc1ccccc1)c1ccc(C(F)(F)F)cc1O
survivor count [3]: 0 of 3
